Reference: PubChem BioAssay AID1671195 (Yale University, 2021)

- Assay: 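Regulators of LDL receptor activity judged by labelled LDL uptake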 (primary screen)
- Cells: human Huh7 hepatoma cells
- Reagent: siRNA pool against human genes, 18 nM
- Time to read-out: about 2 to 2.5 days of knockdown, then 8 h LDL uptake
- Challenge: DiI-labelled LDL at 30 µg/ml for 8 h, in lipoprotein-deficient serum medium
- Measurement: 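Per-cell DiI-LDL intensity by automated imaging; well means scaled to the plate median and given as a robust z-score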
- Direction: robust z-score: higher = more LDL uptake after knockdown
- Rule for the call: 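Active when two or more replicates show a robust z-score above 2 or below -2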
Here is one part, drawn at random, of about 22,000 deposited reagents. In the full data, about 1,510 (6.9%) got an active call. 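Active includes knockdowns raising or lowering LDL uptake; positive z-scores mean more uptake, negative mean less.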

gene knocked down	PubChem SID	robust z-score, replicate 1	robust z-score, replicate 2	robust z-score, replicate 3	activity call
GRIK1 (GeneID 2897)	SID442900359	-0.792	-0.801	-0.657	inactive
SEC22A (GeneID 26984)	SID442898311	1.34	-2.66	-0.133	inactive
LOC440402 (retired record) (GeneID 440402)	SID442896789	-0.538	-0.0562	-0.345	inactive
SPRN (GeneID 503542)	SID442884335	-1.9	-2.17	-1.82	active
DSEL (GeneID 92126)	SID442903736	-1.38	-1.54	-1.21	inactive
DPH1 (GeneID 1801)	SID442887535	1.83	-0.556	1.4	inactive
GOSR1 (GeneID 9527)	SID442883479	2.93	2.8	2.72	active
RAB6B (GeneID 51560)	SID442890260	-0.124	1.28	0.168	inactive
EIF5A (GeneID 1984)	SID442895683	-0.456	-0.352	0.224	inactive
CTSF (GeneID 8722)	SID442893674	0.0927	-0.366	0.341	inactive
FLJ44955 (retired record) (GeneID 401278)	SID442893491	0.362	-0.0194	-0.209	inactive
RAP1GAP2 (GeneID 23108)	SID442884673	1.69	2.59	1.75	inactive
CCDC22 (GeneID 28952)	SID442901383	-0.45	-2.07	-0.157	inactive
GPR62 (GeneID 118442)	SID442896623	0.265	-1.01	-0.14	inactive
AXIN1 (GeneID 8312)	SID442885044	0.33	3.35	1.44	inactive
PM20D2 (GeneID 135293)	SID442904202	-2.18	-1.14	-1.26	inactive
FLJ45966 (retired record) (GeneID 401120)	SID442893837	-0.0466	-0.172	0.235	inactive
TUB (GeneID 7275)	SID442895077	1.21	-0.838	-0.76	inactive
OPRL1 (GeneID 4987)	SID442894075	-0.301	0.254	-0.0228	inactive
SPATA2 (GeneID 9825)	SID442902067	-1.21	-0.289	-1.52	inactive
OSGIN1 (GeneID 29948)	SID442901572	-0.836	-0.831	-1.1	inactive
CAMKK1 (GeneID 84254)	SID442889815	0.0385	0.572	0.906	inactive
SSX6P (GeneID 280657)	SID442901443	-0.925	-0.782	-0.996	inactive
LOC388278 (retired record) (GeneID 388278)	SID442893319	0.254	0.147	-0.211	inactive
TGDS (GeneID 23483)	SID442892997	0.126	0.554	-0.383	inactive
BARHL1 (GeneID 56751)	SID442887206	0.526	0.93	1.43	inactive
LOC441245 (retired record) (GeneID 441245)	SID442883984	2.24	1.91	2.14	active
SIRT3 (GeneID 23410)	SID442893563	-0.568	0.269	0.405	inactive
NEURL4 (GeneID 84461)	SID442902293	-1.43	-1.08	-0.628	inactive
ADGRL3 (GeneID 23284)	SID442902020	-0.966	-1.12	-0.909	inactive
SGPP2 (GeneID 130367)	SID442904041	-0.888	-1.49	-2.03	inactive
LOC391426 (retired record) (GeneID 391426)	SID442886774	1.45	0.845	0.912	inactive
CCDC15 (GeneID 80071)	SID442895700	-0.446	-0.413	0.269	inactive
ZFC3H1 (GeneID 196441)	SID442892164	-0.224	-0.565	1.39	inactive
NIF3L1 (GeneID 60491)	SID442885764	1.55	1.45	1.14	inactive
RAPGEF1 (GeneID 2889)	SID442895525	-0.147	-0.41	0.0231	inactive
CST11 (GeneID 140880)	SID442883542	2.79	2.46	2.9	active
ZBTB2 (GeneID 57621)	SID442899870	-0.495	-0.619	-0.929	inactive
SLC43A2 (GeneID 124935)	SID442889266	0.313	1.54	-0.101	inactive
TEX10 (GeneID 54881)	SID442895851	-0.177	-0.814	0.351	inactive
CDH9 (GeneID 1007)	SID442887814	1.19	0.593	0.727	inactive
ATRAID (GeneID 51374)	SID442890247	0.832	0.323	0.175	inactive
SFTA2 (GeneID 389376)	SID442886193	0.419	2.04	1.25	inactive
SLC6A12 (GeneID 6539)	SID442898635	-0.308	-0.704	-0.552	inactive
MSH2 (GeneID 4436)	SID442887171	1.04	0.785	1.08	inactive
LOC440426 (retired record) (GeneID 440426)	SID442896014	-0.497	0.148	-0.34	inactive

Records listed so far with an active call, once more:
gene knocked down	PubChem SID	robust z-score, replicate 1	robust z-score, replicate 2	robust z-score, replicate 3	activity call
SPRN (GeneID 503542)	SID442884335	-1.9	-2.17	-1.82	active
GOSR1 (GeneID 9527)	SID442883479	2.93	2.8	2.72	active
LOC441245 (retired record) (GeneID 441245)	SID442883984	2.24	1.91	2.14	active
CST11 (GeneID 140880)	SID442883542	2.79	2.46	2.9	active
